The results in this text go back to publication PMC9024126.

Results are given in words; binding and its absence hold for the method and conditions named. Binding seen in cells or lysates may run through a third protein. Some entries that bind do so weakly or less than the wild type. Tags and fused reporters may be left off the sequences shown.

Common to all, as to experiment: FRET or BRET; Fast Relaxation Imaging (FReI) in living HeLa cells: IR-laser temperature jumps of 2.2°C at intervals of 50 s from 23.0 to 58.2°C; donor (AcGFP1) to acceptor (mCherry) ratio D/A averaged over the cytoplasm; a decrease of D/A read as intermolecular FRET
Background: BRET reads energy transfer from a luciferase to a nearby fluorophore.

Assay [1] addresses APSK37 C43Y (APS kinase domain of human PAPSS2, Δ37, folding sensor with AcGFP1 and mCherry) (human) (UniProt O95340).
Assay [2] concerns the target APSK37 L76Q (APS kinase domain of human PAPSS2, Δ37, folding sensor with AcGFP1 and mCherry) (human) (UniProt O95340).
Assay [3] deals with APSK37 T48R (APS kinase domain of human PAPSS2, Δ37, folding sensor with AcGFP1 and mCherry) (human) (UniProt O95340).

B1: APSK37 C43Y (APS kinase domain of human PAPSS2, Δ37, folding sensor with AcGFP1 and mCherry) (domain or fragment, UniProt O95340 38-220)
chain: GGFRGYTVWLTGLSGAGKTTISFALEEYLVSHAIPCYSLDGDNVRHGLNRNLGFSPGDREENIRRIAEVAKLFADAGLVCITSFISPFAKDRENARKIHESAGLPFFEIFVDAPLNICESRDVKGLYKRARAGEIKGFTGIDSDYEKPETPERVLKTNLSTVSDCVHQVVELLQEQNIVPYTI
Turning to B1, the binding result in assay [1] is reported as “binds”.

B2: APSK37 L76Q (APS kinase domain of human PAPSS2, Δ37, folding sensor with AcGFP1 and mCherry) (domain or fragment, UniProt O95340 38-220)
chain: GGFRGCTVWLTGLSGAGKTTISFALEEYLVSHAIPCYSQDGDNVRHGLNRNLGFSPGDREENIRRIAEVAKLFADAGLVCITSFISPFAKDRENARKIHESAGLPFFEIFVDAPLNICESRDVKGLYKRARAGEIKGFTGIDSDYEKPETPERVLKTNLSTVSDCVHQVVELLQEQNIVPYTI
As for B2, the binding entry in assay [2] is listed as “binds”.

B3: APSK37 T48R (APS kinase domain of human PAPSS2, Δ37, folding sensor with AcGFP1 and mCherry) (domain or fragment, UniProt O95340 38-220)
chain: GGFRGCTVWLRGLSGAGKTTISFALEEYLVSHAIPCYSLDGDNVRHGLNRNLGFSPGDREENIRRIAEVAKLFADAGLVCITSFISPFAKDRENARKIHESAGLPFFEIFVDAPLNICESRDVKGLYKRARAGEIKGFTGIDSDYEKPETPERVLKTNLSTVSDCVHQVVELLQEQNIVPYTI
As for B3, the binding result in assay [3] is on record as “binds”.
